PubChem BioAssay AID1053208 | Peter MacCallum Cancer Centre | 2014

- Assay: 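Genes whose silencing cuts survival of bone tumour cells only with doxorubicin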 (primary screen)
- Cell system: mouse osteosarcoma cells, early-passage culture from an engineered mouse model of fibroblastic bone tumour
- Reagent: siRNA pool against mouse genes, 40 nM
- Time to read-out: about 120 h (48 h before drug, then 72 h with drug)
- Challenge: doxorubicin 100 nM for 72 h, roughly 30-40% inhibitory dose
- Detection: 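Viability read as ATP luminescence after 72 h of 100 nM doxorubicin or none, duplicate wells averaged, scaled to non-targeting siRNA, then expressed as robust z-scores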
- Direction: viability z-score with doxorubicin: higher = more viable cells under doxorubicin; viability z-score without drug: higher = more viable cells with knock-down alone
- Rule for the call: 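a pool counts as active when its viability z-score with doxorubicin is -2 or below and its z-score without drug lies between -2 and 2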
In all, the deposit lists about 17,000 reagents; shown is an unselected part. 788 of all reagents (4.7%) count as active. 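Calls rest on z-score classes alone; an extra cut-off of viability at most 70% of control was not applied to them.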 A number with no mark means an inactive call. Not all columns of the deposit are shown.

What is on record for 1700008J07RIK?
combined z-score class: no change with or without drug; viability z-score with doxorubicin: -0.67; viability z-score without drug: 0.67

With Mef2a, how do the results read?
combined z-score class: no change with or without drug; viability z-score with doxorubicin: -0.56; viability z-score without drug: 1.69

With Stk32c, what was measured?
combined z-score class: no change with or without drug; viability z-score with doxorubicin: -1.01; viability z-score without drug: -0.51

For Ppp1r12c, what was measured?
combined z-score class: no change with or without drug; viability z-score with doxorubicin: 0.22; viability z-score without drug: 0.17

How did the screen score Dennd2a?
combined z-score class: no change with or without drug; viability z-score with doxorubicin: 0.67; viability z-score without drug: -0.51

With Slc39a11, what does the deposit list?
combined z-score class: no change with or without drug; viability z-score with doxorubicin: 0.34; viability z-score without drug: -0.84

What is on record for Plbd1?
combined z-score class: no change with or without drug; viability z-score with doxorubicin: -0.22; viability z-score without drug: -0.84

With Tnnt3, how do the results read?
combined z-score class: no change with or without drug; viability z-score with doxorubicin: 0; viability z-score without drug: 0.17

Which result is listed for Or5w18?
combined z-score class: no change with or without drug; viability z-score with doxorubicin: 1.91; viability z-score without drug: 0

What did the screen give for Mrpl39?
combined z-score class: low cell count with and without drug; viability z-score with doxorubicin: -7.98; viability z-score without drug: -9.95

With Srebf2, how do the results read?
combined z-score class: low cell count without drug only; viability z-score with doxorubicin: -1.57; viability z-score without drug: -2.87

For Nkain3, what was measured?
combined z-score class: no change with or without drug; viability z-score with doxorubicin: -0.22; viability z-score without drug: 0.34

Which result is listed for Teddm2?
combined z-score class: no change with or without drug; viability z-score with doxorubicin: -1.12; viability z-score without drug: -0.51

For Or6c208, how do the results read?
combined z-score class: no change with or without drug; viability z-score with doxorubicin: -0.9; viability z-score without drug: -1.18

How did the screen score Acrv1?
combined z-score class: no change with or without drug; viability z-score with doxorubicin: -0.67; viability z-score without drug: 0.17

What is on record for Gulo?
combined z-score class: no change with or without drug; viability z-score with doxorubicin: 0.22; viability z-score without drug: 0.17

For Grcc10, what does the deposit list?
combined z-score class: no change with or without drug; viability z-score with doxorubicin: 1.01; viability z-score without drug: 1.01

What did the screen give for Ncoa2?
combined z-score class: no change with or without drug; viability z-score with doxorubicin: 1.35; viability z-score without drug: -0.84

What did the screen give for Elavl3?
combined z-score class: high cell count without drug only; viability z-score with doxorubicin: -0.67; viability z-score without drug: 2.36

With Plcd1, what does the deposit list?
combined z-score class: no change with or without drug; viability z-score with doxorubicin: 0.45; viability z-score without drug: 1.35

For Or8b46, what was measured?
combined z-score class: no change with or without drug; viability z-score with doxorubicin: 1.46; viability z-score without drug: -0.17

How did the screen score Smchd1?
combined z-score class: no change with or without drug; viability z-score with doxorubicin: -1.12; viability z-score without drug: -1.18

What did the screen give for Ube2d1?
combined z-score class: no change with or without drug; viability z-score with doxorubicin: -0.45; viability z-score without drug: 0.51

With Mios, how do the results read?
combined z-score class: no change with or without drug; viability z-score with doxorubicin: 1.46; viability z-score without drug: -1.18

With Dnali1, what was measured?
combined z-score class: high cell count without drug only; viability z-score with doxorubicin: 0.22; viability z-score without drug: 2.02

How did the screen score Rbbp5?
combined z-score class: no change with or without drug; viability z-score with doxorubicin: -1.01; viability z-score without drug: -0.84

For Wap, what does the deposit list?
combined z-score class: high cell count with doxorubicin only; viability z-score with doxorubicin: 2.36; viability z-score without drug: 1.85

What is on record for Ctrl?
combined z-score class: no change with or without drug; viability z-score with doxorubicin: 1.35; viability z-score without drug: -0.17
